These are yes or no findings as the source states them, for the method shown. Binding calls can cover weak binding; strength is not graded here.
The substances below were run against GEF2 (Arabidopsis RopGEF, upstream regulator of ROP1) (Arabidopsis thaliana) (UniProt Q9LQ89) (assay: two-hybrid; S. cerevisiae AH109 co-transformed with AtROP1 and its mutants in pGADT7-Dest and GEF2 or RIC2 in pGBKT7; leu- trp- selection for transformation, his- ade- selection for interaction (0, 1, 3 or 10 mM 3-AT where required)).

Chains of the proteins cited; added tags and fusions are not shown. Lines headed by an entry give the natural chain unless they say otherwise; changes in a name come on top.
UniProt Q9LQ89: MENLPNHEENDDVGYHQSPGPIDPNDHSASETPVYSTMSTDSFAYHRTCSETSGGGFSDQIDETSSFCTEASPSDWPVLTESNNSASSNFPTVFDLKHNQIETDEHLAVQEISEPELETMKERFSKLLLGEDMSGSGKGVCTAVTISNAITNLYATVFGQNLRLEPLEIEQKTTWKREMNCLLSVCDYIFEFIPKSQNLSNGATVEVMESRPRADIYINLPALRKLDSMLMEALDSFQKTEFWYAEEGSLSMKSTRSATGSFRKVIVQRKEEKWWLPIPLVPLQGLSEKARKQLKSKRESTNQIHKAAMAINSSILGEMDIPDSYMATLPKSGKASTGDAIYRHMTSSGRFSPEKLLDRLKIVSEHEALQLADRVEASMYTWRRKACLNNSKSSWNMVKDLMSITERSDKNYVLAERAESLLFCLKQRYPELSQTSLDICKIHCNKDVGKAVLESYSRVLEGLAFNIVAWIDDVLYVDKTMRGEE
UniProt P92978: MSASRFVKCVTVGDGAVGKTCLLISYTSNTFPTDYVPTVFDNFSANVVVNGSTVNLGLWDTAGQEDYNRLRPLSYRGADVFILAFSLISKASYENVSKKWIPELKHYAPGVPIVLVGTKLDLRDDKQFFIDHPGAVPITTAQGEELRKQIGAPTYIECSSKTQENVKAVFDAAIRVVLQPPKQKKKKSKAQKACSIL

binding, binds:
Arabidopsis ROP1 GTPase, wild type (AtROP1 WT) (from UniProt P92978 1-197)
Arabidopsis ROP1 GTPase, constitutive active (G15V) with S97A (from UniProt P92978 1-197)
Arabidopsis ROP1 GTPase, constitutive active (CA, G15V) (from UniProt P92978 1-197)
Arabidopsis ROP1 GTPase S97E (from UniProt P92978 1-197)
Arabidopsis ROP1 GTPase S97A (from UniProt P92978 1-197)
Arabidopsis ROP1 GTPase, constitutive active (G15V) with S97E (from UniProt P92978 1-197)

— publication PMC8539224
